# Results: the supplement of paper PMC6119338
# The list shows a part of the results. Repeats are few or missing, and single values can be far off.
# System: Plasmodium berghei sporozoites
# Experiment: residual sporozoite gliding motility relative to DMSO control; higher = less inhibition of motility
# Conditions: 10 µM; incubation time 30 min
# Method: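 GFP-expressing Plasmodium berghei salivary gland sporozoites (about 2000 per well, 384-well plate, RPMI with 3% BSA) were incubated 30 min with MMV Malaria Box compounds at 10 uM, then imaged at 1 Hz for 30 s. Sporozoites moving more than one parasite length were counted manually and expressed as percentage residual motility relative to DMSO controls. The pilot screen was a single assay per compound; apparent hits were repeated up to two more times. 'No observable inhibition' in the pilot screen is encoded as inactive (>50% residual, active false), a coarse placeholder rather than a measured value.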
row,Compound,residual sporozoite gliding motility [%]
1,Cc1cc(NC(=O)C2c3ccccc3C(=O)N(CC(C)C)C2c2cccs2)no1 (stereo not given),> 50
2,CN(C)CCCNCc1ccc(-c2ccc(F)c(Cl)c2)o1,> 50
3,O=C(Cc1ccccc1)NC(c1ccc(Cl)cc1)c1c(O)ccc2ccccc12 (stereo not given),> 50
4,CCCc1c(CC)c(=N)c2ccccc2n1C,> 50
5,Nc1nc(Nc2cccc(F)c2)nc2ccccc12,> 50
6,COc1cc(C(=O)ON=C(N)Cc2cccc3ccccc23)cc(OC)c1OC,> 50
7,COc1nc(Nc2ccc(C(C)C)cc2)nc(OC)n1,> 50
8,CC1(c2ccccc2)Nc2ccccc2-c2nc3ccccc3n21 (stereo not given),> 50
9,O=c1nc(C=Cc2ccc(Br)cc2)oc2ccccc12,> 50
10,CCc1c(C)c(=N)c2ccccc2n1C,> 50
11,CCCCNCC(O)(c1ccc(Cl)cc1)c1ccc(Cl)cc1,> 50
12,CCOC(=O)c1cnc2c(C)cccc2c1Nc1ccc(C(C)=O)cc1,> 50
13,COc1cc(-c2nc(-c3ccccc3)c(-c3ccccc3)[nH]2)cc(OC)c1O,> 50
14,CCCN(CCC)CCCNC(=O)c1cc2c(-c3ccc(OC)c(OC)c3)nn(C)c2s1,> 50
15,c1ccc2cc3c(Nc4ccc(N5CCOCC5)cc4)ccnc3cc2c1,> 50
16,CC(C)(C)C(=O)Nc1ccc(C(=O)Nc2cccc(-c3nc4ccccc4[nH]3)c2)cc1,> 50
17,COc1ccc(Nc2nc(N/N=C/c3ccc(O)cc3)nc(Nc3ccc([N+](=O)[O-])cc3)n2)cc1,> 50
18,CCn1c(SCC(=O)Nc2cc(C(F)(F)F)ccc2Cl)nc2ccccc2c1=O,> 50
19,COc1ccc(CCN2C(=O)c3[nH]nc(-c4cc(Cl)c(C)cc4O)c3C2c2ccccc2F)cc1 (stereo not given),> 50
20,CCn1c(CN2CCN(Cc3ccccc3)CC2)nc2cc(NC(=O)c3cccs3)ccc21,> 50

row,Compound,residual sporozoite gliding motility [%]
1,CN1CCN(c2c3c(c(C#N)c4nc5ccccc5n24)CCC3)CC1,> 50
2,Cc1cc(C)c2c(c1)OCN(Cc1ccccc1Cl)C2,> 50
3,CC(C)(C)c1ccc(O)c(CNC2CCCCC2)c1,> 50
4,O=C(NNc1cc(N2CCCC2)nc(N2CCCC2)n1)c1ccccc1,> 50
5,COc1ccc2nc(N)nc(C)c2c1,> 50
6,Cc1cc(N(C)C)nc(Nc2ccc(NC(=O)Nc3ccccc3)cc2)n1,> 50
7,Cn1c(=O)c2cc(C(=O)NCCCN3CCCCCC3)sc2c2ccccc21,> 50
8,COc1ccc(/C=C2/SC(Nc3ccc(F)cc3)=NC2=O)c(OC)c1,> 50
9,CC1CN(C(=O)c2sc3ccccc3c2Cl)CC(C)O1 (stereo not given),> 50
10,O=C(NCC1Cc2cccc(-c3ccncc3)c2O1)c1csc2c1CCCC2 (stereo not given),> 50
11,C=CCc1c(C)nc2ccccc2c1O,> 50
12,COc1ccccc1NC1=C(N2CCCCC2)C(=O)c2ccccc2C1=O,> 50
13,CCN(CC)S(=O)(=O)c1ccc(-c2csc(Nc3ccc(C)c(C)c3)n2)cc1,> 50
14,CCOc1cc(Br)c(C(C)NC(=O)c2cccc(OC)c2)cc1OCC (stereo not given),> 50
15,CCOC(=O)c1cnc2ccc(OC)cc2c1Nc1ccc(N2CCN(C)CC2)cc1,> 50
16,CCOc1ccc2c(c1)CN(Cc1ccc(Cl)cc1)CO2,> 50
17,Fc1ccc2[nH]c3c(NCCCN4CCOCC4)ncnc3c2c1,> 50
18,COc1ccc(N2CCN(C(CNC(=O)C3CCCCC3)c3ccc4c(c3)OCO4)CC2)cc1 (stereo not given),> 50
19,COc1ccc2nc(C)cc(Nc3ccccc3O)c2c1,> 50
20,CC(Oc1ccc(NC(=O)c2cccs2)cc1)C(=O)c1ccc(Cl)cc1 (stereo not given),> 50

# 3 records drawn at random from the list so far, as already listed:
row,Compound,residual sporozoite gliding motility [%]
4,O=C(NNc1cc(N2CCCC2)nc(N2CCCC2)n1)c1ccccc1,> 50
2,Cc1cc(C)c2c(c1)OCN(Cc1ccccc1Cl)C2,> 50
10,O=C(NCC1Cc2cccc(-c3ccncc3)c2O1)c1csc2c1CCCC2 (stereo not given),> 50
